T1: Med23, myc-tagged fusion protein expressed in HEK cells (human) (UniProt Q9ULK4)
T1 sequence: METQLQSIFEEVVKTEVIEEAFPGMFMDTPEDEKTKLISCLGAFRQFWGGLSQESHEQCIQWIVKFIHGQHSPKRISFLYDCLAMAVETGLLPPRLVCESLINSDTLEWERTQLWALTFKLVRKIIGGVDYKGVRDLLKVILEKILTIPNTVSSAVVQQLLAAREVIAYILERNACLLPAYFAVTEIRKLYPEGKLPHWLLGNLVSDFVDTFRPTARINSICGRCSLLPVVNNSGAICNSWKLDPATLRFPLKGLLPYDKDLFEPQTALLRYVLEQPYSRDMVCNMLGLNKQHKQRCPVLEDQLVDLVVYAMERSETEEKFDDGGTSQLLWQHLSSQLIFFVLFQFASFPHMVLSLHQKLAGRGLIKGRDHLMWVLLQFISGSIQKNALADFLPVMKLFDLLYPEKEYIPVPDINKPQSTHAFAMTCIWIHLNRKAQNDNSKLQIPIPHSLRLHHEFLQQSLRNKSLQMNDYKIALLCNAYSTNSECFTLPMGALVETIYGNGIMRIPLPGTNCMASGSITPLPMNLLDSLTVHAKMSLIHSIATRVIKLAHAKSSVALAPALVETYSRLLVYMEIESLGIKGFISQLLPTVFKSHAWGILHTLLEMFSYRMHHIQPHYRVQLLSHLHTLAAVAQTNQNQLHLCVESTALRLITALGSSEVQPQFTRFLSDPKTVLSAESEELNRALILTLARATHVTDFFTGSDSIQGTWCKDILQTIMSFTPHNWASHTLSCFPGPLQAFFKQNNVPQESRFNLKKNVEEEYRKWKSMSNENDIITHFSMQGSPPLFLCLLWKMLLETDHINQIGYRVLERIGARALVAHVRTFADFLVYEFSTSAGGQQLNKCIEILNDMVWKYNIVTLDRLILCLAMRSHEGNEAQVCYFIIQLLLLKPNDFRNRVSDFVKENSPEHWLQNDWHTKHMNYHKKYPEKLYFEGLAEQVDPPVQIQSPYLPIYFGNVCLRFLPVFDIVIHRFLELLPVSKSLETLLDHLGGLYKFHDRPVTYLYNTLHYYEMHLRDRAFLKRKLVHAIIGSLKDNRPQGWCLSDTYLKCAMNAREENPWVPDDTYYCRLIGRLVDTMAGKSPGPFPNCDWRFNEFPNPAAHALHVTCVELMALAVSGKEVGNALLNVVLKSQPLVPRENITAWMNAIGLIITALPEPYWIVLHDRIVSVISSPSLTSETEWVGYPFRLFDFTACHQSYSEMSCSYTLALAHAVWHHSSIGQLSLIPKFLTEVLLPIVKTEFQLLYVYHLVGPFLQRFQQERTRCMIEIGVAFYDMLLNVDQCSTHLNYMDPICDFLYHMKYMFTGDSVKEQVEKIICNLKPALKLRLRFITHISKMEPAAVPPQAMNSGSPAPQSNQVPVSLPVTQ

T2: Med23 (Mediator complex subunit 23), yeast two-hybrid bait pGBKT7-Med23 (human) (UniProt Q9ULK4)
T2 sequence: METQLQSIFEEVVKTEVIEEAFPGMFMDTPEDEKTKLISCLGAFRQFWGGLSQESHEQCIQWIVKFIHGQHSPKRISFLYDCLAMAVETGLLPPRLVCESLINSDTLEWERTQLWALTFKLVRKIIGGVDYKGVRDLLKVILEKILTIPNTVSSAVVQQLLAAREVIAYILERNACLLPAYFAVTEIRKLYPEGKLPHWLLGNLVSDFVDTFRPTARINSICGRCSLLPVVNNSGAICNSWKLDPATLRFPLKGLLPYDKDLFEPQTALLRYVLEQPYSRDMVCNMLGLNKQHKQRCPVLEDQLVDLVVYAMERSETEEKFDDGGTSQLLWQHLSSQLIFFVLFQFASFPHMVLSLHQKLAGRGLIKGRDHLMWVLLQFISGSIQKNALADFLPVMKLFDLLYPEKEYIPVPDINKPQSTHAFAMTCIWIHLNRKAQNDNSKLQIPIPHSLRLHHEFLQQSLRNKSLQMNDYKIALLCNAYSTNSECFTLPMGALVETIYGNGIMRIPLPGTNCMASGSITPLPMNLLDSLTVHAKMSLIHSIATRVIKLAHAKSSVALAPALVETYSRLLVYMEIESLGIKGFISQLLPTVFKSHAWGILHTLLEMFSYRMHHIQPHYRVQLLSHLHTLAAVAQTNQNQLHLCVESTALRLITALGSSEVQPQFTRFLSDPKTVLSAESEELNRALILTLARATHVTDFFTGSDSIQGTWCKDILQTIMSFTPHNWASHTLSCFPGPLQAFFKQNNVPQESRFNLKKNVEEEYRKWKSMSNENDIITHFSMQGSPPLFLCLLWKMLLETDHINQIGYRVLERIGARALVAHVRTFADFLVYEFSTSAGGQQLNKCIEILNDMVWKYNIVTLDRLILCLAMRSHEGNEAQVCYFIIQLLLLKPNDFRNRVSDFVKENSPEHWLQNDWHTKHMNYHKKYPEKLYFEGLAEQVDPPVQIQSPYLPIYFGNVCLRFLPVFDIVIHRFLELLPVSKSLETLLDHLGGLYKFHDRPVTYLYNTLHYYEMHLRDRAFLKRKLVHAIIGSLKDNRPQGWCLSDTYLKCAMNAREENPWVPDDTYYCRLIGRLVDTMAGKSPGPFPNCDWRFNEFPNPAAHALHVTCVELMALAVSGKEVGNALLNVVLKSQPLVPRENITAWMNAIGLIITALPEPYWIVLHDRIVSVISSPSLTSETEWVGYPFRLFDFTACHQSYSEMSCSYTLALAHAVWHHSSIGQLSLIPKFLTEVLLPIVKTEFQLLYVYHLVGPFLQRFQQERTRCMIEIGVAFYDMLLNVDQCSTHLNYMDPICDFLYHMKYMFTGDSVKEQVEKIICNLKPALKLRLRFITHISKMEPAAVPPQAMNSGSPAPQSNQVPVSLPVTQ

B1: IRF7, HA-tagged, expressed in HEK cells (natural protein, human, UniProt Q92985 1-503, looked up)
chain: MALAPERAAPRVLFGEWLLGEISSGCYEGLQWLDEARTCFRVPWKHFARKDLSEADARIFKAWAVARGRWPPSSRGGGPPPEAETAERAGWKTNFRCALRSTRRFVMLRDNSGDPADPHKVYALSRELCWREGPGTDQTEAEAPAAVPPPQGGPPGPFLAHTHAGLQAPGPLPAPAGDKGDLLLQAVQQSCLADHLLTASWGADPVPTKAPGEGQEGLPLTGACAGGPGLPAGELYGWAVETTPSPGPQPAALTTGEAAAPESPHQAEPYLSPSPSACTAVQEPSPGALDVTIMYKGRTVLQKVVGHPSCTFLYGPPDPAVRATDPQQVAFPSPAELPDQKQLRYTEELLRHVAPGLHLELRGPQLWARRMGKCKVYWEVGGPPGSASPSTPACLLPRNCDTPIFDFRVFFQELVEFRARQRRGSPRYTIYLGFGQDLSAGRPKEKSLVLVKLEPWLCRVHLEGTQREGVSSLDSSSLSLCLSSANSLYDDIECFLMELEQPA
B2: IRF4, HA-tagged, expressed in HEK cells (protein, UniProt Q15306 1-451)
chain: MNLEGGGRGGEFGMSAVSCGNGKLRQWLIDQIDSGKYPGLVWENEEKSIFRIPWKHAGKQDYNREEDAALFKAWALFKGKFREGIDKPDPPTWKTRLRCALNKSNDFEELVERSQLDISDPYKVYRIVPEGAKKGAKQLTLEDPQMSMSHPYTMTTPYPSLPAQQVHNYMMPPLDRSWRDYVPDQPHPEIPYQCPMTFGPRGHHWQGPACENGCQVTGTFYACAPPESQAPGVPTEPSIRSAEALAFSDCRLHICLYYREILVKELTTSSPEGCRISHGHTYDASNLDQVLFPYPEDNGQRKNIEKLLSHLERGVVLWMAPDGLYAKRLCQSRIYWDGPLALCNDRPNKLERDQTCKLFDTQQFLSELQAFAHHGRSLPRFQVTLCFGEEFPDPQRQRKLITAHVEPLLARQLYYFAQQNSGHFLRGYDLPEHISNPEDYHRSIRHSSIQE
B3: IRF9, HA-tagged, expressed in HEK cells (protein, UniProt Q00978 1-393)
chain: MASGRARCTRKLRNWVVEQVESGQFPGVCWDDTAKTMFRIPWKHAGKQDFREDQDAAFFKAWAIFKGKYKEGDTGGPAVWKTRLRCALNKSSEFKEVPERGRMDVAEPYKVYQLLPPGIVSGQPGTQKVPSKRQHSSVSSERKEEEDAMQNCTLSPSVLQDSLNNEEEGASGGAVHSDIGSSSSSSSPEPQEVTDTTEAPFQGDQRSLEFLLPPEPDYSLLLTFIYNGRVVGEAQVQSLDCRLVAEPSGSESSMEQVLFPKPGPLEPTQRLLSQLERGILVASNPRGLFVQRLCPIPISWNAPQAPPGPGPHLLPSNECVELFRTAYFCRDLVRYFQGLGPPPKFQVTLNFWEESHGSSHTPQNLITVKMEQAFARYLLEQTPEQQAAILSLV
B4: IRF7, yeast two-hybrid prey pGADT7-IRF7 (protein, UniProt Q92985 1-503)
chain: MALAPERAAPRVLFGEWLLGEISSGCYEGLQWLDEARTCFRVPWKHFARKDLSEADARIFKAWAVARGRWPPSSRGGGPPPEAETAERAGWKTNFRCALRSTRRFVMLRDNSGDPADPHKVYALSRELCWREGPGTDQTEAEAPAAVPPPQGGPPGPFLAHTHAGLQAPGPLPAPAGDKGDLLLQAVQQSCLADHLLTASWGADPVPTKAPGEGQEGLPLTGACAGGPGLPAGELYGWAVETTPSPGPQPAALTTGEAAAPESPHQAEPYLSPSPSACTAVQEPSPGALDVTIMYKGRTVLQKVVGHPSCTFLYGPPDPAVRATDPQQVAFPSPAELPDQKQLRYTEELLRHVAPGLHLELRGPQLWARRMGKCKVYWEVGGPPGSASPSTPACLLPRNCDTPIFDFRVFFQELVEFRARQRRGSPRYTIYLGFGQDLSAGRPKEKSLVLVKLEPWLCRVHLEGTQREGVSSLDSSSLSLCLSSANSLYDDIECFLMELEQPA
B5: IRF4, yeast two-hybrid prey pGADT7-IRF4 (protein, UniProt Q15306 1-451)
chain: MNLEGGGRGGEFGMSAVSCGNGKLRQWLIDQIDSGKYPGLVWENEEKSIFRIPWKHAGKQDYNREEDAALFKAWALFKGKFREGIDKPDPPTWKTRLRCALNKSNDFEELVERSQLDISDPYKVYRIVPEGAKKGAKQLTLEDPQMSMSHPYTMTTPYPSLPAQQVHNYMMPPLDRSWRDYVPDQPHPEIPYQCPMTFGPRGHHWQGPACENGCQVTGTFYACAPPESQAPGVPTEPSIRSAEALAFSDCRLHICLYYREILVKELTTSSPEGCRISHGHTYDASNLDQVLFPYPEDNGQRKNIEKLLSHLERGVVLWMAPDGLYAKRLCQSRIYWDGPLALCNDRPNKLERDQTCKLFDTQQFLSELQAFAHHGRSLPRFQVTLCFGEEFPDPQRQRKLITAHVEPLLARQLYYFAQQNSGHFLRGYDLPEHISNPEDYHRSIRHSSIQE
B6: IRF9, yeast two-hybrid prey pGADT7-IRF9 (protein, UniProt Q00978 1-393)
chain: MASGRARCTRKLRNWVVEQVESGQFPGVCWDDTAKTMFRIPWKHAGKQDFREDQDAAFFKAWAIFKGKYKEGDTGGPAVWKTRLRCALNKSSEFKEVPERGRMDVAEPYKVYQLLPPGIVSGQPGTQKVPSKRQHSSVSSERKEEEDAMQNCTLSPSVLQDSLNNEEEGASGGAVHSDIGSSSSSSSPEPQEVTDTTEAPFQGDQRSLEFLLPPEPDYSLLLTFIYNGRVVGEAQVQSLDCRLVAEPSGSESSMEQVLFPKPGPLEPTQRLLSQLERGILVASNPRGLFVQRLCPIPISWNAPQAPPGPGPHLLPSNECVELFRTAYFCRDLVRYFQGLGPPPKFQVTLNFWEESHGSSHTPQNLITVKMEQAFARYLLEQTPEQQAAILSLV

No constants are given. Whether binding was seen depends on the method and setting. For part of these data: Binding seen in cells or lysates may run through a third protein. Some results given as binding are weak or reduced against the parent protein; the word gives no strength. For part of these data: Sequences can lack the tags named with a protein.

One assay addresses T1, Med23, myc-tagged fusion protein expressed in HEK cells (human). Put plainly: co-IP; myc-Med23 and HA-IRF co-expressed in HEK293 (vTF-7, T7 promoter); NP40 lysate; IP with anti-myc, blot with anti-HA.
As for B1, the binding result was “binds”.

On to B2, for which the binding result is “binds”.

Regarding B3, the binding entry was “binds weakly”.

The target of a further assay is T2, Med23 (Mediator complex subunit 23), yeast two-hybrid bait pGBKT7-Med23 (human). Put plainly: two-hybrid; pairwise mating: Med23 bait (pGBKT7, Y187) with IRF preys (pGADT7, AH109); growth on SD-LWH with 3-AT and fluorescence from 4-MuX cleavage, quadruplicates.
As to B4, the binding entry is given as “binds”.

On to B5, for which the binding entry was “binds”.

Regarding B6, the binding result is given as “binds weakly”.
